Results are given in words; binding and its absence hold for the method and conditions named. In cells and extracts the contact can be indirect.
Target: CAV1 (human (endogenous in MIA PaCa-2 and PANC1)) (UniProt Q03135)
Assay: co-IP; Pierce Co-Immunoprecipitation Kit; MIA PaCa-2 and PANC1 cells lysed in mild lysis buffer, lysates on a column coated with 5 µg primary antibody, overnight at 4 °C; eluates read by Western blot; which antibody precipitated is not stated

Chains of the proteins cited; added tags and fusions are not shown.
UniProt Q03135: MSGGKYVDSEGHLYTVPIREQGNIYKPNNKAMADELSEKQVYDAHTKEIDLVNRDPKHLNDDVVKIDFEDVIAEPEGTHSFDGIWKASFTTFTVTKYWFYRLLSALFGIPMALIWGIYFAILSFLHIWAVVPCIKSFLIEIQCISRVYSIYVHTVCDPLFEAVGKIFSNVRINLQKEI

B1: SLC40A1 (protein, UniProt Q9NP59 1-571)
chain: MTRAGDHNRQRGCCGSLADYLTSAKFLLYLGHSLSTWGDRMWHFAVSVFLVELYGNSLLLTAVYGLVVAGSVLVLGAIIGDWVDKNARLKVAQTSLVVQNVSVILCGIILMMVFLHKHELLTMYHGWVLTSCYILIITIANIANLASTATAITIQRDWIVVVAGEDRSKLANMNATIRRIDQLTNILAPMAVGQIMTFGSPVIGCGFISGWNLVSMCVEYVLLWKVYQKTPALAVKAGLKEEETELKQLNLHKDTEPKPLEGTHLMGVKDSNIHELEHEQEPTCASQMAEPFRTFRDGWVSYYNQPVFLAGMGLAFLYMTVLGFDCITTGYAYTQGLSGSILSILMGASAITGIMGTVAFTWLRRKCGLVRTGLISGLAQLSCLILCVISVFMPGSPLDLSVSPFEDIRSRFIQGESITPTKIPEITTEIYMSNGSNSANIVPETSPESVPIISVSLLFAGVIAARIGLWSFDLTVTQLLQENVIESERGIINGVQNSMNYLLDLLHFIMVILAPNPEAFGLLVLISVSFVAMGHIMYFRFAQNTLGNKLFACGPDAKEVRKENQANTSVV
Which binding does the source give for B1 here?
Its binding is “no binding”.

From article PMC11968908
